The text below walks through data of paper PMC12745170.

Chains of the proteins cited; added tags and fusions are not shown.
UniProt Q6NUQ1: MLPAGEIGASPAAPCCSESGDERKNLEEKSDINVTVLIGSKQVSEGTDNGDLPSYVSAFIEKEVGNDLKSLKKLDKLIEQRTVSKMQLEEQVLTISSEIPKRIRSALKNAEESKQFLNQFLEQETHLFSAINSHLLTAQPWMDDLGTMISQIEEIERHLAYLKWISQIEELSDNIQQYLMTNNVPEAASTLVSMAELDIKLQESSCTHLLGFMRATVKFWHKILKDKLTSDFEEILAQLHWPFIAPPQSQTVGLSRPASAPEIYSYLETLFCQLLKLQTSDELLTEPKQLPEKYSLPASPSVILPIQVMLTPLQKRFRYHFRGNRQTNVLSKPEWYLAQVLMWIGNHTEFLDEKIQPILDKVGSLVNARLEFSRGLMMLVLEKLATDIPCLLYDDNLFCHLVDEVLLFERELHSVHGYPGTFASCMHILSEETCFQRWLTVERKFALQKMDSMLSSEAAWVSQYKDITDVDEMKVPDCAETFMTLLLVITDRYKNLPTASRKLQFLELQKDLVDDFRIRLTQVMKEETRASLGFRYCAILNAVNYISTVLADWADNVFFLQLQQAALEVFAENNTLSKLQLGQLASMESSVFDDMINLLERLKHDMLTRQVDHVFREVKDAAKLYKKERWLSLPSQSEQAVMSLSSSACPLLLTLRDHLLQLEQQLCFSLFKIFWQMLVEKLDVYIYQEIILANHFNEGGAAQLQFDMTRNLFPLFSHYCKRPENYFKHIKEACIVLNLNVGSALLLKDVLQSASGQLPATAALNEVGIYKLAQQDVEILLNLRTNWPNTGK

Results are given in words; binding and its absence hold for the method and conditions named. In cells and extracts the contact can be indirect. Some entries that bind do so weakly or less than the wild type. For some of these results: Tags and fused reporters may be left off the sequences shown.

Experiment [1] addresses T1, Ring Finger Protein 39 (RNF39), endogenous in COAD cells (human (endogenous in COAD cells)) (UniProt Q9H2S5).
T1 sequence: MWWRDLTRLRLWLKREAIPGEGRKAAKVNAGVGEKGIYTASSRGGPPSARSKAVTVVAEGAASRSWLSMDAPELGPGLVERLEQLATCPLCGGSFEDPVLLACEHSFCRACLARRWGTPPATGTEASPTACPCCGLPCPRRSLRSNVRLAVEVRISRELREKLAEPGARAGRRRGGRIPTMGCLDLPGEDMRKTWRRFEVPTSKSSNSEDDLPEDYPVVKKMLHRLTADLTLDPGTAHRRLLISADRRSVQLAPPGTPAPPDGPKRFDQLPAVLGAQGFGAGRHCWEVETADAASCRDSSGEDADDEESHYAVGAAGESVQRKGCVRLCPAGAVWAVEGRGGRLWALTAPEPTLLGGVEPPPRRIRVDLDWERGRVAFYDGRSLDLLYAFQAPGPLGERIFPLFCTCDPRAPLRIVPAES
The experiment is described as follows: co-IP; endogenous proteins; COAD cells pretreated with MG132 (10 µM, 4 h); RIPA lysates; IP with anti-RNF39 or anti-RINT1 antibody, IgG as control, immunoblotting. (In western blotting, separated proteins are transferred to a membrane and probed.)

The target in experiment [2] is T2, GST-tagged RNF39 fusion protein (human) (UniProt Q9H2S5).
T2 sequence: T1 sequence
The experiment is described as follows: pull-down; bacterially purified GST-RNF39 or GST alone with whole-cell lysates of Flag-RINT1-overexpressing cells; only the target purified.

The target in experiment [3] is RAD50-interacting protein 1 (RINT1), endogenous in COAD cells (human (endogenous in COAD cells)) (UniProt Q6NUQ1). The experiment in a line: co-IP; endogenous proteins; COAD cells pretreated with MG132 (10 µM, 4 h); RIPA lysates; IP with anti-RNF39 or anti-RINT1 antibody, IgG as control, immunoblotting.
Experiment [4] concerns the target Flag-tagged RINT1, construct Full (human) (UniProt Q6NUQ1). The experiment in a line: co-IP; 293T cells transfected with Flag-tagged RINT1 deletion constructs (Full, C, N) for 36 h; lysates immunoprecipitated with anti-Flag resin, immunoblotting.

For the molecule “RAD50-interacting protein 1 (RINT1), endogenous in COAD cells (from UniProt Q6NUQ1 1-792)”, in experiment [1], the binding entry is listed as “binds”.

As to “Flag-RINT1 from whole-cell lysates of Flag-RINT1-overexpressing cells (from UniProt Q6NUQ1 1-792)”, the binding entry in experiment [2] was “binds”.

B1: Ring Finger Protein 39 (RNF39), endogenous in COAD cells (protein, UniProt Q9H2S5 1-420)
chain: T1 sequence
B1: in experiment [3], the binding entry is “binds”.

B2: RNF39 in 293T cell lysate (co-IP with Flag-RINT1 constructs) (protein, UniProt Q9H2S5 1-420)
chain: T1 sequence
On to B2, for which, in experiment [4], the binding entry is on record as “binds”.
